Experimental findings from patent US20150330981A1 (published 2015) are described below.

Sequences of proteins named here, by UniProt entry; tags and fusion partners are left off. A change or cut given only in a name is not applied to a line headed by its entry.
UniProt Q86TM6: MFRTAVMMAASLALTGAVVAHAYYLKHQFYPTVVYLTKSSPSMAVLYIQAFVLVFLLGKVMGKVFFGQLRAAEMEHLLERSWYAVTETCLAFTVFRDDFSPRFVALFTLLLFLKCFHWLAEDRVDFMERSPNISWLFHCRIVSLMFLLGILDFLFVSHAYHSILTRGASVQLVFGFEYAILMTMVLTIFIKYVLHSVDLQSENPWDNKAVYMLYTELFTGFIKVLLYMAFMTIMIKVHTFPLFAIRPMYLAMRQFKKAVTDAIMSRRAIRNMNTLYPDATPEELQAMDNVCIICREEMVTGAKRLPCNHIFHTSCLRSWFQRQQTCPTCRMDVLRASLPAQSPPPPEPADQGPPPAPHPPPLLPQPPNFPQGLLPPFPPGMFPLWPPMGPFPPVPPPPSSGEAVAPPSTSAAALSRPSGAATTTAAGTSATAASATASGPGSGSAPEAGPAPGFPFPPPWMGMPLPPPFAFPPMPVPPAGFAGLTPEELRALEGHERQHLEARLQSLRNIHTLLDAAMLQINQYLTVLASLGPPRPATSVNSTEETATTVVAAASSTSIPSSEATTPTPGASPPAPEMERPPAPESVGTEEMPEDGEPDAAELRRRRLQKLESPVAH

Assay [1] concerns the target T1, HA PGC-1β (full-length mouse PGC-1β with HA tag) (mouse) (UniProt Q8VHJ7).
T1 sequence (looked up): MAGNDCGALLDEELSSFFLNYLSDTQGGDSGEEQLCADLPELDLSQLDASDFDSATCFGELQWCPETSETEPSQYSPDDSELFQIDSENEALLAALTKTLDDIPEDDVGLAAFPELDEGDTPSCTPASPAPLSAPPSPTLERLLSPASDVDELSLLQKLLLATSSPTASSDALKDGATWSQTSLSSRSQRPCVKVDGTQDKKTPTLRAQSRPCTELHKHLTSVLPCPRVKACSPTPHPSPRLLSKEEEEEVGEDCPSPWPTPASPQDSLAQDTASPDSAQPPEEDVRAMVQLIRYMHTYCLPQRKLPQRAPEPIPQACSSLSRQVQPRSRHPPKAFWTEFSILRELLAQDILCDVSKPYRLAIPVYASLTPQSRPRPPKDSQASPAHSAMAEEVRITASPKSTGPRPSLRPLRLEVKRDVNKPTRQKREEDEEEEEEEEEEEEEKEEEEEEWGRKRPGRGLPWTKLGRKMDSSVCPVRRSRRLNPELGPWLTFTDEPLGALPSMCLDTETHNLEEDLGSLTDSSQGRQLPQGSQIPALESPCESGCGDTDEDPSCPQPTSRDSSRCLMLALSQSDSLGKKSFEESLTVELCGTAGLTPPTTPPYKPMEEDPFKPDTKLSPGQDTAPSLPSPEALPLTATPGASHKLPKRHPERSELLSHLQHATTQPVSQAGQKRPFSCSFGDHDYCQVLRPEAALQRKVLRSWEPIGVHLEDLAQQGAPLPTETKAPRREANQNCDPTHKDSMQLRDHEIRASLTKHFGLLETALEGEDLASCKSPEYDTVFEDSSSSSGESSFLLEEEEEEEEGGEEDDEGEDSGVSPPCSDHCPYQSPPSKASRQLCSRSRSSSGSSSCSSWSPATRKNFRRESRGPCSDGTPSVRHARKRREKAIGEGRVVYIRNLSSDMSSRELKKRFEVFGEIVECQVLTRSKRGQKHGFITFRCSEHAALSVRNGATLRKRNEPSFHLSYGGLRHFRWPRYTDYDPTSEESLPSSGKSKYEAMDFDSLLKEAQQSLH
The assay is described as follows: co-immunoprecipitation, Western blot (legend of FIG. 6A).

For assay [2], the target named is T1, HA PGC-1β (full-length mouse PGC-1β with HA tag) (mouse). The assay is described as follows: co-immunoprecipitation with anti-FLAG from HEK-293T extract, anti-HA Western blot.
Assay [3] has as its target T2, endogenous PGC-1β in whole cell extract from HEK-293 (UniProt Q86YN6).
T2 sequence (looked up): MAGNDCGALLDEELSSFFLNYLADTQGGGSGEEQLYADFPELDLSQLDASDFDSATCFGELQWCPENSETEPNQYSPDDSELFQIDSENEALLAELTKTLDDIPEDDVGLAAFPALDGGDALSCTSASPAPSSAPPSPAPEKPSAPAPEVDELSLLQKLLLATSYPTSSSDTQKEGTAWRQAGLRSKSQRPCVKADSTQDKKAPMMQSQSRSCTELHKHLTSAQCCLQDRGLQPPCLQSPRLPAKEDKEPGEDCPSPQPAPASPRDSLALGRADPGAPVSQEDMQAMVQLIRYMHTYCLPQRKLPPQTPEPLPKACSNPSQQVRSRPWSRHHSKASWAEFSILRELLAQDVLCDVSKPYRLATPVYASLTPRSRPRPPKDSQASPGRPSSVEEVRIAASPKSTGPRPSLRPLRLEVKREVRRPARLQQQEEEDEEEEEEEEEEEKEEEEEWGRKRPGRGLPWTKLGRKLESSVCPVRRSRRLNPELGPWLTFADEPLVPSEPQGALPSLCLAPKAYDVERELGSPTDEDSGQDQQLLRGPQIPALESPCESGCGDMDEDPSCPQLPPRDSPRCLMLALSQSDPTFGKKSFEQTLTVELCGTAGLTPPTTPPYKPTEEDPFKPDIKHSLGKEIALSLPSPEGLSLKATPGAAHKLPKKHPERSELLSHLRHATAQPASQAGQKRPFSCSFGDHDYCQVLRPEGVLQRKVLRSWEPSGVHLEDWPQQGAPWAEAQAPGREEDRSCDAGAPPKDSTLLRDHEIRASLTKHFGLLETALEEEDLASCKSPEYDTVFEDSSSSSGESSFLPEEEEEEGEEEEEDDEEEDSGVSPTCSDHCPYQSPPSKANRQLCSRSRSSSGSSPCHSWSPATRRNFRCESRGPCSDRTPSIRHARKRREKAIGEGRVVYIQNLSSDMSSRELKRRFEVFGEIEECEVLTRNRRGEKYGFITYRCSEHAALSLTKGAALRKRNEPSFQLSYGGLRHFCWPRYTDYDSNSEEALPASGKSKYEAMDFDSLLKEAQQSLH
The experiment in a line: immunoprecipitation with anti-synoviolin antibody from HEK-293 extract, anti-PGC-1β immunoblot.

The target of assay [4] is T2, endogenous PGC-1β in whole cell extract from HEK-293. The assay is described as follows: co-immunoprecipitation, Western blot (legend of FIG. 6B).
Assay [5] has as its target T1, HA PGC-1β (full-length mouse PGC-1β with HA tag) (mouse). The assay is described as follows: GST pull-down of in vitro translated HA PGC-1β with GST-fused synoviolin fragments, anti-HA Western blot.
The target is the same in assay [6]. The assay is described as follows: GST pull-down, Western blot (legend of FIG. 5).

No constants are given. Whether binding was seen depends on the method and setting. For part of these data: Binding seen in cells or lysates may run through a third protein. Some entries that bind do so weakly or less than the wild type. For part of these data: Tags and fused reporters may be left off the sequences shown.

As for “synoviolin with FLAG tag (SYVN1/FLAG) (from UniProt Q86TM6 1-617) (enzyme)”, the binding result in assay [1] and in assay [2] was “binds” throughout.

On to “synoviolin in whole cell extract from HEK-293 (from UniProt Q86TM6 1-617) (enzyme)”, for which the binding result in assay [3] and in assay [4] was “binds” in each case.

With “SyU domain of synoviolin (236 to 270 amino acid sequences) fused to GST (from UniProt Q86TM6 236-270) (enzyme)”, the binding entry in assay [5] and in assay [6] was “binds” in each case.
